{"sequences": {"note": "Chains of the proteins cited; added tags and fusions are not shown.", "UniProt P04150": "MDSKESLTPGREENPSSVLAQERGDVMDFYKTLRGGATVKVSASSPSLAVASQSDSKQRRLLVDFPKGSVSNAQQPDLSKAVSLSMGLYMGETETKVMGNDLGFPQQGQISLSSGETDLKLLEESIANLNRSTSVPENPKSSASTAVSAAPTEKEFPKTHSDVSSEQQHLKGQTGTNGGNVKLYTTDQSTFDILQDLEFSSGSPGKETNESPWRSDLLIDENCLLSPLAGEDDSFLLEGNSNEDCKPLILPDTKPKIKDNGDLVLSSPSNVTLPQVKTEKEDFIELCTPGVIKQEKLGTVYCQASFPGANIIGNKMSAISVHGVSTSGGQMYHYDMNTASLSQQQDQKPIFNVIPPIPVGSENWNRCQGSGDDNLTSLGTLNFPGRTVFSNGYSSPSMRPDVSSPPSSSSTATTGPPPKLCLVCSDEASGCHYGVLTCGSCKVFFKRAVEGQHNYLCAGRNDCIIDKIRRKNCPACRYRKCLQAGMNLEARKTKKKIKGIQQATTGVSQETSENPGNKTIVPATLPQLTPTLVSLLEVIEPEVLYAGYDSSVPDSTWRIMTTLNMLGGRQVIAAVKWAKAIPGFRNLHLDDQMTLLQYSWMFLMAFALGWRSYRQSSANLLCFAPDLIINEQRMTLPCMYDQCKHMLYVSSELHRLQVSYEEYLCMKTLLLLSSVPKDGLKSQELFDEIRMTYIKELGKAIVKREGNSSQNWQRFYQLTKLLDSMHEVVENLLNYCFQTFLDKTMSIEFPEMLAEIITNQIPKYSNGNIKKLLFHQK"}, "source": "paper PMC5608759", "binders": {"B1": {"name": "Zfs1 (protein, UniProt P47979 1-404)", "chain": "MVYSPMSRPQVPLAFRQWPPYNYKSDPLVNSKLSQSTTSVNAGPSLISPSFLDSYANSSSLLHKPSTNLGSLKTSSLLASDEVFPSSVMPQLRPLDSSLSVSPEMDGWPWHHNSSSNPQGYAWTPSLLSSNATSYLHSGSSPHGNTSNHPSPISSLESLPSRSSTGSGSLDFSGLANLHDDSKSLAMSLNMAGVPVSVDENSQTSFPFVHGQPESTMSRKPKLCVQSKSMTNIRNSVAKPSLVRQSHSAGVIPIKPTASNASIRNAPSNLSKQFSPSGNSPLTEASKPFVPQPSAAGDFRQAKGSASHPHGSGSSNGVAPNGKRALYKTEPCKNWQISGTCRYGSKCQFAHGNQELKEPPRHPKYKSERCRSFMMYGYCPYGLRCCFLHDESNAQKSATIKQSP"}, "B2": {"name": "gap1 (protein, UniProt P33277 1-766)", "chain": "MTKRHSGTLSSSVLPQTNRLSLLRNRESTSVLYTIDLDMESDVEDAFFHLDRELHDLKQQISSQSKQNFVLERDVRYLDSKIALLIQNRMAQEEQHEFAKRLNDNYNAVKGSFPDDRKLQLYGALFFLLQSEPAYIASLVRRVKLFNMDALLQIVMFNIYGNQYESREEHLLLSLFQMVLTTEFEATSDVLSLLRANTPVSRMLTTYTRRGPGQAYLRSILYQCINDVAIHPDLQLDIHPLSVYRYLVNTGQLSPSEDDNLLTNEEVSEFPAVKNAIQERSAQLLLLTKRFLDAVLNSIDEIPYGIRWVCKLIRNLTNRLFPSISDSTICSLIGGFFFLRFVNPAIISPQTSMLLDSCPSDNVRKTLATIAKIIQSVANGTSSTKTHLDVSFQPMLKEYEEKVHNLLRKLGNVGDFFEALELDQYIALSKKSLALEMTVNEIYLTHEIILENLDNLYDPDSHVHLILQELGEPCKSVPQEDNCLVTLPLYNRWDSSIPDLKQNLKVTREDILYVDAKTLFIQLLRLLPSGHPATRVPLDLPLIADSVSSLKSMSLMKKGIRAIELLDELSTLRLVDKENRYEPLTSEVEKEFIDLDALYERIRAERDALQDVHRAICDHNEYLQTQLQIYGSYLNNARSQIKPSHSDSKGFSRGVGVVGIKPKNIKSSNTVKLSSQQLKKESVLLNCTIPEFNVSNTYFTFSSPSTDNFVIAVYQRGHSKVLVEVCICLDDVLQRRYASNPVVDLGFLTFEANKLYHLFEQLFLRK"}, "B3": {"name": "hhp2 (protein, UniProt P40236 1-400)", "chain": "MTVVDIKIGNKYRIGRKIGSGSFGQIYLGLNTVNGEQVAVKLEPLKARHHQLEYEFRVYNILKGNIGIPTIRWFGVTNSYNAMVMDLLGPSLEDLFCYCGRKFTLKTVLLLADQLISRIEYVHSKSFLHRDIKPDNFLMKKHSNVVTMIDFGLAKKYRDFKTHVHIPYRDNKNLTGTARYASINTHIGIEQSRRDDLESLGYVLLYFCRGSLPWQGLQADTKEQKYQRIRDTKIGTPLEVLCKGLPEEFITYMCYTRQLSFTEKPNYAYLRKLFRDLLIRKGYQYDYVFDWMILKYQKRAAAAAAASATAPPQVTSPMVSQTQPVNPITPNYSSIPLPAERNPKTPQSFSTNIVQCASPSPLPLSFRSPVPNKDYEYIPSSLQPQYSAQLRRVLDEEPAP"}, "B4": {"name": "pus1 (protein, UniProt O94396 1-534)", "chain": "MGRGGKRTWYNGDRREAKRNRPNSIYNGEGRPENLVVGEKKPKRKVACLVGYCGSGYHGMQLNPPSKTIEGDLFDAFVKAGAVSSYNADDPKKVALARAARTDKGVHAAGNVISLKLIMEDEKLIEKVNEHLPPSIRLWDVIRTINSFNPRTYCESRIYEYMVPTYAFVPPKPSSILGNCIMKNSPMPAEPINKENINQLSRSLFYEEGKEFWDDYDIAAKEILSLYEQDPEGFVNPYSKRGAAALANSENNKGSEAGVSAKTNPDMDSDSSAIVNEFLKPDSVEDESAGSKIDPSYRLERALKHIEVLKLKNYRISADRLSVIRETLNQYVGVHNFHNFTVGQAFHQKNSNRVIRSFTASDPFMIGDTEWISCKVHGQSFMLHQIRKMIALAILVVRTGCPVERIQDAFKKTKINIPKGPGFGLLLESPFFKGYNEHKAPENNRDPIDFTKYEQKITAFKHAHIYDKIFLEEARKQVFHCFLSFIDSYNEEDFSYLSDIGITEKTQEVSSKLPDVLSSDEEEDSAENKDDLEG"}, "B5": {"name": "grs1 (protein, UniProt Q10179 1-652)", "chain": "MTEVSKAAAFDRTQFEELMKKRFFFSPSFQIYGGISGLYDYGPPGSALQSNLVDIWRKHFVIEESMLEVDCSMLTPHEVLKTSGHVDKFADWMCKDPATGEIFRADHLVEEVLEARLKGDKEARGQNSNDQPEESDDKKKRKKKVKEIRATRLDDKTVEEYEFILAQIDNYDGDQLGELMKKYDIRNPATNGELETPRQFNLMFETQIGPSGGLKGYLRPETAQGQFLNFSRLLEFNNGKVPFASAMVGKAFRNEISPRSGLLRVREFLMAEVEHFVDPKNKEHDRFDEVSHMPLRLLPRGVQLEGKTDILEMPIGDAVKKGIVDNTTLGYFMARISLFLEKIGIDMNRVRFRQHMSNEMAHYACDCWDAEIQCSYGWIECVGCADRSAYDLSVHSKATKTPLVVQEALPEPVVVEQFEVEVNRKKFGPRFKRDAKAVEEAMISWPESEKVEKSAQLVAEGKIIVNVNGVEHTVESDLVTIEKRKHTEHIRTYTPNVIEPSFGLGRILYVLMEHAYWTRPEDVNRGVLSFPASIAPIKALIVPLSRNAEFAPFVKKLSAKLRNLGISNKIDDSNANIGRRYARNDELGTPFGLTVDFETLQNETITLRERDSTKQVRGSQDEVIAALVSMVEGKSSFEDALAKFGEFKSTQE"}, "B6": {"name": "mis3 (protein, UniProt O74777 1-327)", "chain": "MTEVESSTENNVIVNKNKRYRRDKPWDTDDIDHWKIEPFTKDDSKESFLEESSFATLFPKYREKYLREVWPHVTRALDKFGITCVLDLVEGSMTVKTTRKTFDPYSILDARDLIKLLARSVPFPQAVKIMQDGVACDIIKIGNILRNKERFVKRRQRLIGTNGQTLKALELLTQCYILVQGTTVAVMGGYKGLKEVRRIVEDCMHNIHPIYHIKELMIKRELAKDPTLANESWDRFLPQFKKRNVARRKPAKIRETKEYTPFPPAQPPSKLDLEIESGEYFLKKEEKERKKRAEKKEQQKEKKKEKEKERMKAFIPPEESSKKRKRD"}, "B7": {"name": "nop2 (protein, UniProt O94268 1-608)", "chain": "MGRKQKSKQGIPPTLEENHNSSHKVTENAKKRKHSKEKPQNSRKRQLAEEKKSLFENSDSENEKDLIDADEFEEAETLSDLEHDEEPQTFADEFIDDEAKECEGEEEDSVFDSDEEHEVKPMFSDDSGDEEDLELANMEAMSRKLDEEAELEEKEAEEELHTNIHPEAPTVLPPIDGFTDSQPISTLPQDLSQIQLRIQEIVRVLNDFKNLCEPGRNRSEYVDQLLNDICAYYGYSRFLAEKLFELFSVSEAVEFFEANEMPRPVTIRTNTLKTQRRELAQALINRGVNLEPIGKWSKVGLQVFESQVPIGATPEYLAGHYILQAASSFLPVMALAPQPNERILDMSSAPGGKVTYVAALQKNTGIIFANDSNKARTKALSANIHRLGVRNAIVCNYDGRKFPNEVIGGFDRVLLDAPCSGTGVIYKDQSVKTNKSERDFDTLSHLQRQLLLSAIDSVNADSKTGGFIVYSTCSITVDEDEAVIQYALKKRPNVKLVSTGLEFGREGFTRFREKRFHPSLKLTRRYYPHVHNIDGFFVAKLKKISDKIPTVNVADDMKDGTNNDVEIEKNSTEIDNITFNDEADKEIIEQNRRKWLKSKGYKVAKKKD"}, "B8": {"name": "brx1 (protein, UniProt Q9HGL6 1-295)", "chain": "MSTVYKLKTSERAPKNEDEDEEYVPVQNGQGNKHSAGFVPIKQKVLVLSSRGVTYRQRHLLNDLVSMMPHSKKDSKLDSKDRLYQLNELAELYNCNNIFFFESRRREDLYLHIARAPNGPTVKFHVENLHTMDELNMTGNALKGSRPILSFDKTFDTAPHLKVVKELLQQTFGIPKGARRSKPFIDRVCTLTIADGKIWFRNYEIRENEDKSKDPVTLIEIGPRFVMTIINILEGSFGGPVIYKNDTFVSSTMVRAAIRNQAAQRYVNRQESKLERQVRAQQNVIPEDPLDNVFA"}, "B9": {"name": "utp22 (protein, UniProt O94676 1-1097)", "chain": "MNGLKREHESSSSQDGSKTPETEYDSHVDSIEDIHSLASKRKKLNEKKENLEDLTLLKTSAFELKLNELIREISVRGKYFRHANTFVEKIKDLIFKTPVIPETNFWSACKNLEKDKKVIVPLAEPLSAKDTNLRASFVPPKTVTPGIFSCSNKFFLNPDGWSYDLFLEIPESIFTQKDYLNGRYFRKRAFYLTCIAKHLLENLGNEVKLEFVAFNDDIRRPILAILPESKGFAATGKRFTVFLIPTVRQIFPVSKLLPHKNAIRDFMEHEELKPTPFYNNSVLEEQNLLFYRDLVKKYSVNPQFLDACGLGSTWLNMRGFSSSIHSNGFGLLEWYVLMALLMSSTGLPAGNVLNTYLTAAQFFKSMLQFLSSKNLTSTLFKLNADSSNLKIGNGHLPTLIDCNTGFNLLGKMKQSFFEYFQASCRHTLNLLDENANYNFSKIFITHVNVPALEFDVSGCIPLEPKELEDPNFCRKTDLDSPYSLYLEYTWDLLQHALGDRVCQIILYSSICTSCSINESLKTKLPKLISFGLLLNPDALLRLVDIGPSPDDTVGSQKFREFWGEVSELRKFKNGSIAESVYWECSSPDERIRIPQRIIRHILNRHLGNNVGDRVSFRNEKFRVYVHSKISPNTDTYNEYVPVMEAYNEAVKSLINLSDIPLSIAEILPADESLRYSSSSVPFYESSTCAPIDVVFQFESSSKWPDELEGIQRTKIAFLLKIAELLEALDNVERASVGLENTDNPTHNCCFLQVLFSNNFTFRYRLRNDREIFFWKSLERNPSTKLSAQKGLYAYEHMFQFIPRHTLAIQAICQAHRSYSMAVRLAKHWFYSHLLTDHVTDEVIELLVASVYINSSSWRTTSSGETSFCRMLHFLAHWDWRFDPLIINSNGKLPHDVRHQATEKLESIRKQDVAIAHNAYYIITDYDFDGNHIGYYKPSKIIANRITSLARASLSELLKDTPNYKSIFKSSLDIYHVVIDVNINKLPMYRESNLTKYKNLQNMSSERPGFEPITEFVKELHRCFEDTISFFYNKKNPKVVTGVFNPRILANRPYRTNIDYPFKVVDKDTVVLDADVVCEEIRQVGGDLIRSIQLQLKA"}, "B10": {"name": "dbp3 (protein, UniProt Q10202 1-529)", "chain": "MAKRSVEELKRSADEEASVKRKEKKSKHEHKKHKKDKPSADKDRISKKDKKKSKKGKSKTKEESIEINAEEGAKIAQPAIGSANASNHNDEEAYDRYIKKHNISFADPKSSENLLPILQFDELDVSAKLREGLKNYKEPTPIQAATWPYLLAGRDVVGIAETGSGKTVAFGIPALQYLNGLSDNKSVPRVLVVSPTRELAIQTYENLNSLIQGTNLKAVVVYGGAPKSEQARAAKNASVIIGTPGRLLDLINDGSIDCSQVGYLVLDEADRMLDTGFEQDIRNIISHTPDPTRNGSRQTVFFSATWPESVRALAATFLKDPVKITIGSDELAASQNITQIVEILDDPRSKERMLDNLLRKHLSSGGKDDKILIFVLYKKEAARVEGTLARKYNVVGIHGDMSQGARLQALNDFKSGKCPVLVATDVAARGLDIPKVQLVINVTFPLTIEDYVHRIGRTGRANTKGTAITFFTPQDKSHAGELVNVLRQAKQDIPEGLFKFGTAVKPKLNAYGSRVVDVPVKAATKIVFD"}}, "note": "No constants are given. Whether binding was seen depends on the method and setting. Binding seen in cells or lysates may run through a third protein. These calls come from enrichment with a bait or labelling near it, and not all partners need be listed."}
{"molecular_target": "human glucocorticoid receptor alpha (GRα), expressed in S. pombe (human) (UniProt P04150)", "assay": "affinity purification with mass spectrometry; anti-GR antibody on epoxy-activated magnetic beads; lysates of S. pombe expressing hGRα (empty vector as control) grown at 30 °C or 39 °C (heat shock 30 min); lysis buffer 250 mM NaCl, 20 mM Tris pH 7.5, 1% Triton X-100, 100 mM potassium acetate; 4 °C, 1 hour, 6 washes; SDS-PAGE and LC-MS/MS"}
{"binder": "B1", "binding": "binds"}
{"binder": "B2", "binding": "binds"}
{"binder": "B3", "binding": "binds"}
{"binder": "B4", "binding": "binds"}
{"binder": "B5", "binding": "binds"}
{"binder": "B6", "binding": "binds"}
{"binder": "B7", "binding": "binds"}
{"binder": "B8", "binding": "binds"}
{"binder": "B9", "binding": "binds"}
{"binder": "B10", "binding": "binds"}
